{"source": "PubChem BioAssay AID652272 (Drosophila RNAi Screening Center, 2013)", "test": "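Genome-wide knock-down search for components of Hedgehog signalling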 (primary screen)", "cell system": "Drosophila clone 8 (Cl8) cells", "knock-down reagent": "long dsRNA against Drosophila genes", "measured": "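Firefly light from a Hedgehog-responsive ptc promoter reporter and Renilla reference light, both read on a plate reader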", "scale": "firefly Hh reporter signal: higher = more ptc reporter light; Renilla reference signal: higher = more Renilla control light", "rule for the call": "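Called a hit if the two-replicate mean z-score lies below -2 or above +3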", "calls": "active = hit: reporter lowered or raised; inactive = not a hit", "note": "In all, the deposit lists about 21,000 reagents; below is a random part of those with a known target gene and a result. Of all reagents, 503 (2.4%) got an active call. 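Raw plate light values, not normalised; calls rest on replicate z-scores that were not deposited; hits include reporter decreases as well as increases.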 Entries without a mark were called inactive. Names joined by + are all predicted targets of the reagent. Reagent sequences are not shown. Not stated in the record: the amount of reagent, the time to read-out."}
The first 2 records as a preview:
{"Target gene":"Muc68E (GeneID 2768990)","dsRNA":"DRSC09146","firefly Hh reporter signal, replicate 1":8.29e5,"firefly Hh reporter signal, replicate 2":2.02e5,"firefly Hh reporter signal, replicate 3":1.06e5,"Renilla reference signal, replicate 1":5187,"Renilla reference signal, replicate 2":8261}
{"Target gene":"CG7878 (GeneID 40959)","dsRNA":"DRSC16330","firefly Hh reporter signal, replicate 1":87954,"firefly Hh reporter signal, replicate 2":1.44e5,"Renilla reference signal, replicate 1":3024,"Renilla reference signal, replicate 2":2950}

Results, from the first entry:
{"Target gene":"Muc68E (GeneID 2768990)","dsRNA":"DRSC09146","firefly Hh reporter signal, replicate 1":8.29e5,"firefly Hh reporter signal, replicate 2":2.02e5,"firefly Hh reporter signal, replicate 3":1.06e5,"Renilla reference signal, replicate 1":5187,"Renilla reference signal, replicate 2":8261}
{"Target gene":"CG7878 (GeneID 40959)","dsRNA":"DRSC16330","firefly Hh reporter signal, replicate 1":87954,"firefly Hh reporter signal, replicate 2":1.44e5,"Renilla reference signal, replicate 1":3024,"Renilla reference signal, replicate 2":2950}
{"Target gene":"Amun (GeneID 32123)","dsRNA":"DRSC19847","firefly Hh reporter signal, replicate 1":52512,"firefly Hh reporter signal, replicate 2":1.33e5,"Renilla reference signal, replicate 1":1235,"Renilla reference signal, replicate 2":6262}
{"Target gene":"step (GeneID 35425)","dsRNA":"DRSC03694","firefly Hh reporter signal, replicate 1":82978,"firefly Hh reporter signal, replicate 2":62192,"Renilla reference signal, replicate 1":2144,"Renilla reference signal, replicate 2":4800}
{"Target gene":"step (GeneID 35425)","dsRNA":"DRSC03699","firefly Hh reporter signal, replicate 1":1.20e5,"firefly Hh reporter signal, replicate 2":80096,"Renilla reference signal, replicate 1":2672,"Renilla reference signal, replicate 2":7609}
{"Target gene":"CG11597 (GeneID 39337)","dsRNA":"DRSC09847","firefly Hh reporter signal, replicate 1":42775,"firefly Hh reporter signal, replicate 2":56834,"Renilla reference signal, replicate 1":1618,"Renilla reference signal, replicate 2":2537}
{"Target gene":"Mrp4 (GeneID 41387)","dsRNA":"DRSC14931","firefly Hh reporter signal, replicate 1":1.22e5,"firefly Hh reporter signal, replicate 2":1.80e5,"Renilla reference signal, replicate 1":3575,"Renilla reference signal, replicate 2":8768}
{"Target gene":"kek6 (GeneID 43729)","dsRNA":"DRSC15299","firefly Hh reporter signal, replicate 1":85089,"firefly Hh reporter signal, replicate 2":1.32e5,"Renilla reference signal, replicate 1":2964,"Renilla reference signal, replicate 2":5784}
{"Target gene":"CG7974 (GeneID 38207)","dsRNA":"DRSC08607","firefly Hh reporter signal, replicate 1":1.37e5,"firefly Hh reporter signal, replicate 2":80131,"Renilla reference signal, replicate 1":5290,"Renilla reference signal, replicate 2":3803}
{"Target gene":"CG31960 (GeneID 319047)","dsRNA":"DRSC00281","firefly Hh reporter signal, replicate 1":1.61e5,"firefly Hh reporter signal, replicate 2":62160,"Renilla reference signal, replicate 1":3463,"Renilla reference signal, replicate 2":5169}
{"Target gene":"CG34253 + lncRNA:CR32194","dsRNA":"DRSC09531","firefly Hh reporter signal, replicate 1":1.91e5,"Renilla reference signal, replicate 1":5383}
{"Target gene":"CG10862 (GeneID 38437)","dsRNA":"DRSC08170","firefly Hh reporter signal, replicate 1":80528,"firefly Hh reporter signal, replicate 2":44264,"Renilla reference signal, replicate 1":2256,"Renilla reference signal, replicate 2":2788}
{"Target gene":"Pde8 (GeneID 37741)","dsRNA":"DRSC04503","firefly Hh reporter signal, replicate 1":1.11e5,"firefly Hh reporter signal, replicate 2":77270,"Renilla reference signal, replicate 1":4266,"Renilla reference signal, replicate 2":2951}
{"Target gene":"Tsp47F (GeneID 36230)","dsRNA":"DRSC07325","firefly Hh reporter signal, replicate 1":50368,"firefly Hh reporter signal, replicate 2":38123,"Renilla reference signal, replicate 1":1478,"Renilla reference signal, replicate 2":3721}
{"Target gene":"CG14183 (GeneID 40192)","dsRNA":"DRSC10182","firefly Hh reporter signal, replicate 1":1.17e5,"firefly Hh reporter signal, replicate 2":81217,"Renilla reference signal, replicate 1":4624,"Renilla reference signal, replicate 2":3204}
{"Target gene":"7B2 (GeneID 40644)","dsRNA":"DRSC11991","firefly Hh reporter signal, replicate 1":56403,"firefly Hh reporter signal, replicate 2":78027,"Renilla reference signal, replicate 1":2164,"Renilla reference signal, replicate 2":2503}
{"Target gene":"GstD2 (GeneID 48335)","dsRNA":"DRSC16684","firefly Hh reporter signal, replicate 1":81382,"firefly Hh reporter signal, replicate 2":94848,"Renilla reference signal, replicate 1":2588,"Renilla reference signal, replicate 2":2662}
{"Target gene":"ord (GeneID 37687)","dsRNA":"DRSC04706","firefly Hh reporter signal, replicate 1":60375,"firefly Hh reporter signal, replicate 2":66728,"Renilla reference signal, replicate 1":636,"Renilla reference signal, replicate 2":5557}
